Experimental data published in article PMC5428262.
No constants are given. Whether binding was seen depends on the method and setting. In cells and extracts the contact can be indirect. Here binding means that the protein was enriched with, or labelled near, the bait; the list need not be complete. Tags and fused reporters may be left off the sequences shown.

Biological target: GFP-tagged tomosyn1 (GFP-Tomosyn1), wild type (rat)
Test: affinity purification with mass spectrometry; GFP-tomosyn1 expressed in INS 832/13 cells under standard culture conditions, immunoprecipitation coupled to LC MS/MS

binding: binds
B1: secretagogin (INS 832/13 cells) (protein, UniProt Q6R556 1-276)
chain: MDNAHRQTQAHLDAACFWQIWQRFDKDEKGYIKETELDAFFDDLLAKFGIEDTLMEENVQKMKEQLMVGHDISKEGRILMKELASMFLSEDENFLLFFRLETPLDNSVEFMQIWRKYDADSSGFISAAELSNFLRDLFLHHKKVISEAELEEYTSTMEKIFDRNKDGRLDLNDLARILALQENFLLQFKMDASSTEERKRDFEKIFAHYDVSKTGALEGPEVDGFVKDMMELVQPSISGVDLDKFREILLRHCDVNKDGKIQKSELALCLGLKINP
